Results reported in article PMC11094094.

Chains of the proteins cited; added tags and fusions are not shown.
UniProt P29742: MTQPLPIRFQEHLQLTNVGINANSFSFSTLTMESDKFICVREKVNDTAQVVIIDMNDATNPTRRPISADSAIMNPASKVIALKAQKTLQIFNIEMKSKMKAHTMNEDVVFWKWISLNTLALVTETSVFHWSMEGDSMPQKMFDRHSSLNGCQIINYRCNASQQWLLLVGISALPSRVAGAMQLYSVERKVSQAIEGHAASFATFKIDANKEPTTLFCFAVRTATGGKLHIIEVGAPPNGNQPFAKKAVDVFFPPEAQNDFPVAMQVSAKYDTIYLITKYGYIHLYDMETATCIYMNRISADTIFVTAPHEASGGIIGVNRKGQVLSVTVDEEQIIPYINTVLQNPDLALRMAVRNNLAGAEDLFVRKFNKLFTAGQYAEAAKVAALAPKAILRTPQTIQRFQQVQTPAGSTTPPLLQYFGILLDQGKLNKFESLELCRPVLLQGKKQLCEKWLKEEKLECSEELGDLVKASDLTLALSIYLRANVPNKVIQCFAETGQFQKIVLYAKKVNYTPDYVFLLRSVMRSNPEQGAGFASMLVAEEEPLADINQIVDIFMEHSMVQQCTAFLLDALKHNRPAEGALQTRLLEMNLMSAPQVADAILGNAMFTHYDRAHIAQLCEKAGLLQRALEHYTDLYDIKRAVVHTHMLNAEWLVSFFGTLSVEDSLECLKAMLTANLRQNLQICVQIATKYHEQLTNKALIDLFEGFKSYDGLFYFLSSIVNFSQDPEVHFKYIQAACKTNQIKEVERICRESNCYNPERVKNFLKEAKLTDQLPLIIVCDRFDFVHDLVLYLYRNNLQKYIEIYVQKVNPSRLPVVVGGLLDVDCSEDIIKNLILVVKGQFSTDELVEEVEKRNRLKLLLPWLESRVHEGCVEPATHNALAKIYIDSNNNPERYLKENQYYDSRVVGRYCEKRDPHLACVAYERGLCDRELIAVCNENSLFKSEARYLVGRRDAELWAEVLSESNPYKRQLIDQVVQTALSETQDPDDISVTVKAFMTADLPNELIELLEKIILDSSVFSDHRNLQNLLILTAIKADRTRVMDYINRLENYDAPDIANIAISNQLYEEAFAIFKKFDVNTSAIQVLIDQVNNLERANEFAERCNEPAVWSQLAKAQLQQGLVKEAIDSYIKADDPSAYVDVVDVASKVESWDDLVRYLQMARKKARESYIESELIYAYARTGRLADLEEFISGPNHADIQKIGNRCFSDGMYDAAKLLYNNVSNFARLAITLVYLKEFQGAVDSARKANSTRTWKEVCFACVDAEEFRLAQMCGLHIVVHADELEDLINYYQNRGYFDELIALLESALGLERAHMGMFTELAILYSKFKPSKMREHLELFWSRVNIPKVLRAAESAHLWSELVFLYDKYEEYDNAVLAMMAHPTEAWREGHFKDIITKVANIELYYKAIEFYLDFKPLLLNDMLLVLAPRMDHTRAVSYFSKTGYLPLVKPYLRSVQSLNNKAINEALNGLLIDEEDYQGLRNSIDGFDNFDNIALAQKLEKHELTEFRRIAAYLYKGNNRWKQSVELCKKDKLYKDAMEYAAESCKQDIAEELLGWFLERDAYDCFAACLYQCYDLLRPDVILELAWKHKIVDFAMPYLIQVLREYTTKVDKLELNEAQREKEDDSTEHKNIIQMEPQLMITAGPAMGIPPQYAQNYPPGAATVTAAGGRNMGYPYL
UniProt P11147: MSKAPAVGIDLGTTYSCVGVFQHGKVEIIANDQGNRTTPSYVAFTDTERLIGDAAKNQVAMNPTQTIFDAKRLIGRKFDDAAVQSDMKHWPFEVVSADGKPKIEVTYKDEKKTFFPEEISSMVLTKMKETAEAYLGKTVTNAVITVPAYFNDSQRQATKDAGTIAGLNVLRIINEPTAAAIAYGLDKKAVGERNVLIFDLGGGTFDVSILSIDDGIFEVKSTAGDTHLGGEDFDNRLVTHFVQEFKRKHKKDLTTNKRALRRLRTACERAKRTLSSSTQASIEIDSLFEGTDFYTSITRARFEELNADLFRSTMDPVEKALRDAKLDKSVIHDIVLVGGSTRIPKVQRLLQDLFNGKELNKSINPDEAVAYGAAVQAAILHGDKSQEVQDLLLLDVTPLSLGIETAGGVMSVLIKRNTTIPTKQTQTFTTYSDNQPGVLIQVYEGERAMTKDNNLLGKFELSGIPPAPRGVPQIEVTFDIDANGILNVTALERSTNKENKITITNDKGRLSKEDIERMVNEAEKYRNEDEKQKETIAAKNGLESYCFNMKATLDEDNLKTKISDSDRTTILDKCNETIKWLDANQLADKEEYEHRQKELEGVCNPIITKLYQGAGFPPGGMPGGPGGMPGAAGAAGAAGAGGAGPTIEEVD

Legend:
[1] = target: T1, Evi5 (Ecotropic viral integration site 5), 3xFlag-tagged, from the Evi5^FRT knock-in allele (Drosophila) (UniProt Q9VYY9); test: affinity purification with mass spectrometry; in vivo: whole Evi5^FRT L3 larvae (40-44 h), fixed with 0.2% formaldehyde, lysed; M2 Flag beads 4 h at 4 °C; eluate on SDS gel, MALDI-TOF; control wild-type flies without Flag-tagged protein; single sample
T1 sequence: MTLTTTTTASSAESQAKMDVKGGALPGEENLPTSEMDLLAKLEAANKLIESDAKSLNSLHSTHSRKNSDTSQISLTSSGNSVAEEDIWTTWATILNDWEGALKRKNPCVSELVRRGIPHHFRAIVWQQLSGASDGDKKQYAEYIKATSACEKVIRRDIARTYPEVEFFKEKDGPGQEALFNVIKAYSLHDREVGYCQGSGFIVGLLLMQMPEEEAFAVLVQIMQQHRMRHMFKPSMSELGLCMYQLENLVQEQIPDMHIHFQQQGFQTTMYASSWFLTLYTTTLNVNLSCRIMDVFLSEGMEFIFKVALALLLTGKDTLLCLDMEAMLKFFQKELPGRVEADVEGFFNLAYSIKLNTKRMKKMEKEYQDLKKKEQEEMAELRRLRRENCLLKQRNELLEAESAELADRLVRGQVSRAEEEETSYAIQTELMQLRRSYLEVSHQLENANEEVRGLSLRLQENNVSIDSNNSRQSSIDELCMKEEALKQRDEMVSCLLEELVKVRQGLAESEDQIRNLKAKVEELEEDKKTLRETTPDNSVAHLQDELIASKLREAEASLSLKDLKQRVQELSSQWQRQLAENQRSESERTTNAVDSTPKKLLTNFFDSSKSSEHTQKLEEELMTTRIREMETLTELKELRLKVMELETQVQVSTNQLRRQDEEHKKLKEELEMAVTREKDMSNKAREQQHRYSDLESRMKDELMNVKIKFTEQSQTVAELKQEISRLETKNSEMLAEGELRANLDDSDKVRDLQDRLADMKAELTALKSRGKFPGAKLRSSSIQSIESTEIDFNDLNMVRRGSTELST

[2] = target: T1, Evi5 (Ecotropic viral integration site 5), 3xFlag-tagged, from the Evi5^FRT knock-in allele (Drosophila); test: as above; remark: listed apart in the source
[3] = target: T2, Evi5-3xFlag expressed in S2 cells (pAFW-Evi5-3XFlag) (Drosophila) (UniProt Q9VYY9); test: affinity purification with mass spectrometry; ex vivo: S2 cells transfected with pAFW-Evi5-3XFlag, lysed (50 mM Tris-HCl pH 7.4, 150 mM NaCl, 1 mM EDTA, 0.1% NP-40); M2 Flag beads 4 h at 4 °C; MALDI-TOF; control Flag-tagged eGFP; single sample
T2 sequence: T1 sequence

binding [1]: binds
Molecule: Clathrin heavy chain (Chc) (from UniProt P29742 1-1678)

binding [1]: binds
Molecule: Hsc70-4 (endosomal co-chaperone) (from UniProt P11147 1-651)

binding [2]: binds
B1: Ferritin heavy chain (Fer1HCH), endogenous in larvae (protein, UniProt Q7KRU8 20-205)
chain: DFKCSLAVPEITKDWVDMKDACIKGMRNQIQEEINASYQYLAMGAYFSRDTVNRPGFAEHFFKAAKEEREHGSKLVEYLSMRGQLTEGVSDLINVPTVAKQEWTDGAAALSDALDLEIKVTKSIRKLIQTCENKPYNHYHLVDYLTGVYLEEQLHGQRELAGKLTTLKKMMDTNGELGEFLFDKTL

binding [3]: binds
B2: Ferritin heavy chain (Fer1HCH), endogenous in S2 cells (protein, UniProt Q7KRU8 20-205)
chain: B1 chain

Where two headings read alike, the source gives them in different places. Results are given in words; binding and its absence hold for the method and conditions named. In cells and extracts the contact can be indirect. Here binding means that the protein was enriched with, or labelled near, the bait; the list need not be complete. Where a sequence is shown, tags or fusion partners need not be part of it. Each block holds one molecule with its values, some of them ahead of it.
